In PubChem BioAssay AID1345085 (National Center for Advancing Translational Sciences (NCATS), 2018):
This list was built around the results that the source calls inconclusive (neither active nor inactive); the mix of calls is not that of the screen. Potencies of inconclusive entries are doubtful fits and often do not repeat. Active and inactive are the calls of the source. The call rests on the fitted dose curve; in most records, active means well fitted cell-killing curve with a large enough effect; inconclusive means small, poorly fitted or top-dose-only effect, or effect the other way; inactive means no such curve, though single readings can be large or run the other way.

These molecules were tested on SKOV3 (assay: Confirmatory qHTS for gynecologic anti-cancer compounds from libraries of approved drugs and bioactive compounds). Conditions: gynecologic cancer cell panel viability, ATPlite luminescence, 48 h; series mostly up to 57.6 µM.
Method in brief: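 IC50 values derive from an ATPlite ATP-content luminescence assay following 48 h treatment at 37 C. Each compound ran as an 11-concentration, threefold series (57.5 uM to 0.977 nM); HEK 293T served as control line for selectivity index.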
Further: nearly all actives have a fitted effect of over 55% in size.
Potency means the concentration at half of the fitted maximal effect.

Row | SMILES | Potency
1 | CCCCc1nc2cc(/C=C/C(=O)NO)ccc2n1CCN(CC)CC | active: 769 nM
2 | CCCCc1oc2ccc(NS(C)(=O)=O)cc2c1C(=O)c1ccc(OCCCN(CCCC)CCCC)cc1 | inconclusive: 96.8 nM [cytotoxic, single point]
3 | COc1ccc(CCC(=O)c2c(O)cc(O[C@@H]3O[C@H](CO)[C@@H](O)[C@H](O)[C@H]3O[C@@H]3O[C@@H](C)[C@H](O)[C@@H](O)[C@H]3O)cc2O)cc1O | inactive
